Reference: the supplement of paper PMC12823440, “Inhibitors supercharge kinase turnover through native proteolytic circuits” (Nature, 2025)
Where a name gives a salt, the structure may show the parent alone. Some of the results follow. Hit calls seldom repeat between salt and free forms of one compound.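 Kinases, fused to nanoluciferase, were expressed in K562 cells; luminescence was measured every 4 h from 2 to 18 h as percent of control (DMSO = 100%, positive control = 0%). A time point is decreased if signal falls significantly (2 sigma). Hits were called by the authors by a rule that is not shown; the count of time points alone does not decide it.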

The chains behind the UniProt entries cited, without tags or fusion partners. Where a name states a change or a piece, a line headed by the entry shows the natural chain unless it says otherwise.
UniProt Q9Y616: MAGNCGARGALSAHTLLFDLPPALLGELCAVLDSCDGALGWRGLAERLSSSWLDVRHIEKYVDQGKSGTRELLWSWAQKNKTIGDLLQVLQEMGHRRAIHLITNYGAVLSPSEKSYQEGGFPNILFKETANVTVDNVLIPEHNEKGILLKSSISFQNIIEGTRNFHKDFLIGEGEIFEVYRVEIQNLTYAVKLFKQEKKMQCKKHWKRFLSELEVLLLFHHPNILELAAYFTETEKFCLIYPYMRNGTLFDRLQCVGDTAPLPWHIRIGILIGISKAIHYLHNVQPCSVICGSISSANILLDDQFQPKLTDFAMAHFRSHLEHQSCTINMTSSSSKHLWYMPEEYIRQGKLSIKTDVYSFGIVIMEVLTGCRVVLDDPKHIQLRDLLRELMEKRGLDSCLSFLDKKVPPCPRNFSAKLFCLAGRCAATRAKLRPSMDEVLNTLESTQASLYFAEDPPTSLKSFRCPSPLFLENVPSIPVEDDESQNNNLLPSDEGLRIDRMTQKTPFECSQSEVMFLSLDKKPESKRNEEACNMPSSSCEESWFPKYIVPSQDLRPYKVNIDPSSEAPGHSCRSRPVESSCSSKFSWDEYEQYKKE
UniProt P23458: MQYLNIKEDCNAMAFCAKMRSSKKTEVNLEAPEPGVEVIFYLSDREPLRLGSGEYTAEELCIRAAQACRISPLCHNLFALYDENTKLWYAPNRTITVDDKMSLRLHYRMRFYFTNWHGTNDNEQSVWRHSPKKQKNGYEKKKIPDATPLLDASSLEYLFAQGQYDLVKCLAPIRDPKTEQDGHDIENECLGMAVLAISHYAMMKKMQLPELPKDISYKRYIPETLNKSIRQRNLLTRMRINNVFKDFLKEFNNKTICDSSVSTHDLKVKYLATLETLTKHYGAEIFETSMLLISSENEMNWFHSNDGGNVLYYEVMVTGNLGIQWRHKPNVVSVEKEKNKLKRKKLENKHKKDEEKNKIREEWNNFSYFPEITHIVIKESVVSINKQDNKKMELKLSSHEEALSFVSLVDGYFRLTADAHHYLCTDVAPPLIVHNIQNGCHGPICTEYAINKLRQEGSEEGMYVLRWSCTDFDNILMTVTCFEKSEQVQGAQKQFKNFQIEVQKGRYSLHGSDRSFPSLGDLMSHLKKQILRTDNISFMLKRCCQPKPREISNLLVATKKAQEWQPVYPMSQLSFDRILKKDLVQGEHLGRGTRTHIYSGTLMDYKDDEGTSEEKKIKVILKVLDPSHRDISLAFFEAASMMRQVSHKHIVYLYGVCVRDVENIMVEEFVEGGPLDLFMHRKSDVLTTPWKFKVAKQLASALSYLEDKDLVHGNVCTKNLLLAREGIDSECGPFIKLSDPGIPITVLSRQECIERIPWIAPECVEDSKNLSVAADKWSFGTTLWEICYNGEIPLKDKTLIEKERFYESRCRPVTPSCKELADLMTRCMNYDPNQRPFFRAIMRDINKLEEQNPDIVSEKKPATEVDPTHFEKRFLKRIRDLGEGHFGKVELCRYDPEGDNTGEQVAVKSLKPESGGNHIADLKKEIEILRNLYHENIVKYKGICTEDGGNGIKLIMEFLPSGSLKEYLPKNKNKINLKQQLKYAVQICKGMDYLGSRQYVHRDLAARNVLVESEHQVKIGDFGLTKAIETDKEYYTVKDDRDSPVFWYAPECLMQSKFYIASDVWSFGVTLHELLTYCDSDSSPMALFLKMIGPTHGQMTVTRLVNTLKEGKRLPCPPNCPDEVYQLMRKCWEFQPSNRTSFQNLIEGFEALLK
UniProt P53667: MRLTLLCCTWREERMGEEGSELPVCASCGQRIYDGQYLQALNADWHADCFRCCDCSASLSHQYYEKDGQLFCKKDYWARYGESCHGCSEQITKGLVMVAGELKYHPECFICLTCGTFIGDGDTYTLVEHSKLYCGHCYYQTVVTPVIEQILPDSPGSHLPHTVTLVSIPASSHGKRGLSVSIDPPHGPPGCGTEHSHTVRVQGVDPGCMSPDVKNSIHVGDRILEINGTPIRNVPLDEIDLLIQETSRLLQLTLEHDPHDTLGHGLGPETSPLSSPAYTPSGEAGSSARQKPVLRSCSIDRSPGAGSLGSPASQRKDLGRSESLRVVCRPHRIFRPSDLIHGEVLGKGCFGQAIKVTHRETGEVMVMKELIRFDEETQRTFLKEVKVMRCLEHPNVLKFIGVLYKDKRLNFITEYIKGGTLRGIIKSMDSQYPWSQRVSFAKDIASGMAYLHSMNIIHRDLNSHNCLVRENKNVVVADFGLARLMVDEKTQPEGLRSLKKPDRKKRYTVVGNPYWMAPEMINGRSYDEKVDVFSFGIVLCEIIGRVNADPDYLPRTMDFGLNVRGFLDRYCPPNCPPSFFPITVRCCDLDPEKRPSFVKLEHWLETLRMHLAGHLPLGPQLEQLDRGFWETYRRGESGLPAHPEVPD
UniProt P53671: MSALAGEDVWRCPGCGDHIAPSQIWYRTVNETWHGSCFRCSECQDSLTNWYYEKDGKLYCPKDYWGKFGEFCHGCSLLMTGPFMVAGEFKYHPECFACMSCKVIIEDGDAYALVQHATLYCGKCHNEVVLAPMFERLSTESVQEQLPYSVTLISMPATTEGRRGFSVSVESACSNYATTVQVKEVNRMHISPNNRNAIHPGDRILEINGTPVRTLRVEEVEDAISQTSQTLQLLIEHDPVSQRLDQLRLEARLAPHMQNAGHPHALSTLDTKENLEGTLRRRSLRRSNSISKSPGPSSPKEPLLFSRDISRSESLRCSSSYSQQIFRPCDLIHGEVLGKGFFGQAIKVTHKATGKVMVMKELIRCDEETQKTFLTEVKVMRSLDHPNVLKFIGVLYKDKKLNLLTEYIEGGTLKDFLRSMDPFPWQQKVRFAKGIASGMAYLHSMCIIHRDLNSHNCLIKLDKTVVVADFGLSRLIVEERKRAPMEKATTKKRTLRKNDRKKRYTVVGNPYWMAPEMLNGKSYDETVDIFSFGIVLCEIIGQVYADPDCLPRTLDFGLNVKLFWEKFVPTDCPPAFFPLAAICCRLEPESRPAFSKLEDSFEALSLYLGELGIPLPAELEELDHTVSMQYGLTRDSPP
UniProt Q8IWU2: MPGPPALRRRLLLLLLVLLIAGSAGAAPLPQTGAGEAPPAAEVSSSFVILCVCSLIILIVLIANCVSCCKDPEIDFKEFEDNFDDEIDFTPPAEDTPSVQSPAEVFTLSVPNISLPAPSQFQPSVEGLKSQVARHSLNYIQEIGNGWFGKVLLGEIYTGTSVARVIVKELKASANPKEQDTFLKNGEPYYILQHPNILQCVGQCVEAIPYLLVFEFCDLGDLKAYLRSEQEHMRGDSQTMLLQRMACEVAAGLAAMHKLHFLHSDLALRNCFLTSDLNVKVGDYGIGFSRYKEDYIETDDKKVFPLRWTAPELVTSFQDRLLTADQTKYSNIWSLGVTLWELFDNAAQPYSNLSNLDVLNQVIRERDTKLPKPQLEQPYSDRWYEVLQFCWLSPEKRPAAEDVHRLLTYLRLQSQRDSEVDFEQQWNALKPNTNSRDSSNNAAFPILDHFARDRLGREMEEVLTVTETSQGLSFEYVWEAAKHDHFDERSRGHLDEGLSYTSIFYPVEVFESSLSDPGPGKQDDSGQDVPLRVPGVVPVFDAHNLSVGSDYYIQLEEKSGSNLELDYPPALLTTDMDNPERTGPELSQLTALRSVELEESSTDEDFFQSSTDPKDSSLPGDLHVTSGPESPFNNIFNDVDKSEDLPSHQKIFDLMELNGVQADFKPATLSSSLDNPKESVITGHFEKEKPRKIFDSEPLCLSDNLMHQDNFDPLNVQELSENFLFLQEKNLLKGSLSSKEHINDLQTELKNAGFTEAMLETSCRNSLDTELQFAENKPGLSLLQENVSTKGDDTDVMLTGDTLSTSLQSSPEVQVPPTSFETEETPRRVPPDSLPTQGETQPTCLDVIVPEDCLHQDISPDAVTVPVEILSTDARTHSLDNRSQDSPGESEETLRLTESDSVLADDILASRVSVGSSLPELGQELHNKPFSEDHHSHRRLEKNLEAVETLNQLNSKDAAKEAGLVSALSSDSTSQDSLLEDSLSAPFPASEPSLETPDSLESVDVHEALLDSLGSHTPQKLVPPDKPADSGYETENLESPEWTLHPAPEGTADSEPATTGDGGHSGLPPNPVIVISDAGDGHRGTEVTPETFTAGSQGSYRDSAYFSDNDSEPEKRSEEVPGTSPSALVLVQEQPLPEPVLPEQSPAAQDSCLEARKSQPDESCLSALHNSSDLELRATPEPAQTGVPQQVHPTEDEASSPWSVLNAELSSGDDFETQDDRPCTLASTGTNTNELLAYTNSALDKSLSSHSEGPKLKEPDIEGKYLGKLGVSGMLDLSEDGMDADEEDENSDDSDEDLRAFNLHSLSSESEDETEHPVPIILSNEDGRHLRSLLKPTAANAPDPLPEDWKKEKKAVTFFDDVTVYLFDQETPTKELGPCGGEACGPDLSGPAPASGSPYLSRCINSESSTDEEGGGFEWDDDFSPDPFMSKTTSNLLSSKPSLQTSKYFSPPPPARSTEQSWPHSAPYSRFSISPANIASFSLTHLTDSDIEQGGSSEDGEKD
UniProt P07948: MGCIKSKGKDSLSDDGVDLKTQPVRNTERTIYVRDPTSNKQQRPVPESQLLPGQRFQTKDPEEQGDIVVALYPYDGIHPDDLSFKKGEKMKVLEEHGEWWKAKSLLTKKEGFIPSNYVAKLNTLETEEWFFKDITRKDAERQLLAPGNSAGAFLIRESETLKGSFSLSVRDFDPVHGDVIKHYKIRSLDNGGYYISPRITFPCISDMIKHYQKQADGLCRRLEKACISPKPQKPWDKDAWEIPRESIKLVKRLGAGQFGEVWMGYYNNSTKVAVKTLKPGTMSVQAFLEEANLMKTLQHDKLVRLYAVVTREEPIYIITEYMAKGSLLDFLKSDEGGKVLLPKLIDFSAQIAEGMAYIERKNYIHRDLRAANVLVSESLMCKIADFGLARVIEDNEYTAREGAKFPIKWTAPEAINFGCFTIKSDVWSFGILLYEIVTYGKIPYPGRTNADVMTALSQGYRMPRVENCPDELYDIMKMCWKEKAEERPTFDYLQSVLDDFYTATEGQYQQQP
UniProt Q12851: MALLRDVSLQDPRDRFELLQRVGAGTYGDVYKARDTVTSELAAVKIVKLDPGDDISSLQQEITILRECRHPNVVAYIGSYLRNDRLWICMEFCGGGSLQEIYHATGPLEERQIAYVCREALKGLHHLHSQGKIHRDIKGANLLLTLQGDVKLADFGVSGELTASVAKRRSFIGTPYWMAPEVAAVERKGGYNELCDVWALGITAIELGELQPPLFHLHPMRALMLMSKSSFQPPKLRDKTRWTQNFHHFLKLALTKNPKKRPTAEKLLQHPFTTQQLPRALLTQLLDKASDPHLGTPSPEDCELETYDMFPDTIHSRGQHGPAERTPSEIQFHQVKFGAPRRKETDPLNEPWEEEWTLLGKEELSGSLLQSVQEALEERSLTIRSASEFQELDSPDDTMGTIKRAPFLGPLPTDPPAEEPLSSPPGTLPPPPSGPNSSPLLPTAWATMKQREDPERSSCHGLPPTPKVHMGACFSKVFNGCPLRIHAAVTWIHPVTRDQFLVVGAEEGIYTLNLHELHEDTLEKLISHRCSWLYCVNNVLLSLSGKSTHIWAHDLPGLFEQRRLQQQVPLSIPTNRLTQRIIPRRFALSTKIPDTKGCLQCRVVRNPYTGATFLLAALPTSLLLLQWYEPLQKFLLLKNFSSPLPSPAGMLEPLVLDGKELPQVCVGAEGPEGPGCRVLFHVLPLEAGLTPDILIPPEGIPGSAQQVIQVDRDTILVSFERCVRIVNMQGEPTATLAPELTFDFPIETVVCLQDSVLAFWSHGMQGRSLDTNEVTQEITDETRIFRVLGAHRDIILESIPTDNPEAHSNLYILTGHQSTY
UniProt P06239: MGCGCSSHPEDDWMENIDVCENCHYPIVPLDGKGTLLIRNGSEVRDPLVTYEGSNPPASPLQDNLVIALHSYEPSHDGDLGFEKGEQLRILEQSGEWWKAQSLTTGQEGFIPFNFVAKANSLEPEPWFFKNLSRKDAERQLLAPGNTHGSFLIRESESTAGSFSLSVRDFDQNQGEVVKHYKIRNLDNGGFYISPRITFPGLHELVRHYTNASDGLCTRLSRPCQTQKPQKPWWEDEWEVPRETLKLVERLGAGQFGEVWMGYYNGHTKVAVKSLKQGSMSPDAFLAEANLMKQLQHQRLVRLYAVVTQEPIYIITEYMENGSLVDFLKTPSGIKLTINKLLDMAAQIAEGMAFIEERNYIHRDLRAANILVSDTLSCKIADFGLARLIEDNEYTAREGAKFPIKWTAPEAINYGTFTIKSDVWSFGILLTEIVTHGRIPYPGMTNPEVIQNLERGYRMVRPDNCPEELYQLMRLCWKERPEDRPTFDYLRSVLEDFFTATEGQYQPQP

Columns and labels:
Experiment in all cases: kinase-Nluc reporter destabilization hit call (1 = scored as downregulated) (binary); higher = compound decreases kinase abundance
Details in all cases: K562; 2-18 h
[1] = molecular target: IRAK3 (UniProt Q9Y616)
[2] = molecular target: JAK1 (UniProt P23458)
[3] = molecular target: LIMK1 (UniProt P53667)
[4] = molecular target: LIMK2 (UniProt P53671)
[5] = molecular target: LMTK2 (UniProt Q8IWU2)
[6] = molecular target: LYN (UniProt P07948)
[7] = molecular target: MAP2K1 (UniProt Q02750)
[8] = molecular target: MAP2K2 (UniProt P36507)
[9] = molecular target: MAP4K2 (UniProt Q12851)
[10] = molecular target: LCK (UniProt P06239)

Measured: kinase-Nluc reporter destabilization hit call

Cc1cncc2cccc(S(=O)(=O)N3CCCNC[C@@H]3C)c12 [H-1152 (dihydrochloride)] (10 µM)
inactive: [1] 0 | [2] 0 | [3] 0 | [4] 0 | [5] 0 | [6] 0 | [7] 0 | [8] 0 | [9] 0

CC(=O)Nc1nc(C)c(-c2cc(C)c3c(c2)CN([C@@H](C)C2CC2)C3=O)s1 (10 µM)
inactive: [1] 0 | [2] 0 | [10] 0 | [3] 0 | [4] 0 | [5] 0 | [6] 0 | [7] 0 | [8] 0 | [9] 0

CNCc1cc(Oc2ccc3c(ccn3C(=O)Nc3cc(C(F)(F)F)n(C)n3)c2)ncn1 [Acrizanib] (10 µM)
inactive: [1] 0 | [2] 0 | [10] 0 | [3] 0 | [4] 0 | [5] 0 | [6] 0 | [7] 0 | [8] 0 | [9] 0

Part of the list above in order of molar mass, smallest number first.
Cc1cncc2cccc(S(=O)(=O)N3CCCNC[C@@H]3C)c12 [H-1152 (dihydrochloride)] (10 µM)
inactive: [1] 0 | [2] 0 | [3] 0 | [4] 0 | [5] 0 | [6] 0 | [7] 0 | [8] 0 | [9] 0

CC(=O)Nc1nc(C)c(-c2cc(C)c3c(c2)CN([C@@H](C)C2CC2)C3=O)s1 (10 µM)
inactive: [1] 0 | [2] 0 | [10] 0 | [3] 0 | [4] 0 | [5] 0 | [6] 0 | [7] 0 | [8] 0 | [9] 0

CNCc1cc(Oc2ccc3c(ccn3C(=O)Nc3cc(C(F)(F)F)n(C)n3)c2)ncn1 [Acrizanib] (10 µM)
inactive: [1] 0 | [2] 0 | [10] 0 | [3] 0 | [4] 0 | [5] 0 | [6] 0 | [7] 0 | [8] 0 | [9] 0

The list goes on.

NCCNS(=O)(=O)c1ccc(Cl)c2ccncc12 [CKI-7 (free base)] (10 µM)
inactive: [1] 0 | [2] 0 | [10] 0 | [3] 0 | [4] 0 | [5] 0 | [6] 0 | [7] 0 | [8] 0 | [9] 0

CN1CCN(c2ccc(-c3ccncc3-c3cc(F)c(O)c(F)c3)cc2)CC1 (10 µM)
inactive: [1] 0 | [2] 0 | [10] 0 | [3] 0 | [4] 0 | [5] 0 | [6] 0 | [7] 0 | [8] 0 | [9] 0

Fc1ccc(-c2nc3n(c2-c2ccncc2)CCS3)cc1 (10 µM)
inactive: [1] 0 | [2] 0 | [10] 0 | [3] 0 | [4] 0 | [5] 0 | [6] 0 | [7] 0 | [8] 0 | [9] 0

CC1(C)C=Cc2c(ccc(C(=O)/C=C/c3ccc(O)cc3)c2O)O1 [4-Hydroxylonchocarpin] (10 µM)
inactive: [1] 0 | [2] 0 | [10] 0 | [3] 0 | [4] 0 | [5] 0 | [6] 0 | [7] 0 | [8] 0 | [9] 0

N#Cc1cc(N2CCC(C(=O)N3N=CC[C@H]3c3cc(F)cc(F)c3)CC2)ncn1 (10 µM)
inactive: [1] 0 | [2] 0 | [10] 0 | [3] 0 | [4] 0 | [5] 0 | [6] 0 | [7] 0 | [8] 0 | [9] 0

CCOC(=O)c1c(N2CCc3ccc(OC)cc3C2)oc(C=C2C=Nc3ncccc32)c1O (10 µM)
inactive: [1] 0 | [2] 0 | [10] 0 | [3] 0 | [4] 0 | [5] 0 | [6] 0 | [7] 0 | [8] 0 | [9] 0

Cc1cccc(-c2nn3c(c2-c2ccnc4ccc(C(N)=O)cc24)CCC3)n1 [Galunisertib] (10 µM)
inactive: [1] 0 | [2] 0 | [10] 0 | [3] 0 | [4] 0 | [5] 0 | [6] 0 | [7] 0 | [8] 0 | [9] 0

COc1ccc(CN2CCC(c3ccc4nc(C(=O)N5CCN(Cc6ccc(C(F)(F)F)cc6)CC5)[nH]c4c3)CC2)cn1 (2.5 µM)
inactive: [1] 0 | [2] 0 | [10] 0 | [3] 0 | [4] 0 | [5] 0 | [6] 0 | [7] 0 | [8] 0 | [9] 0

Nc1ccc(C(=O)Nc2cccc(-c3nc(N4CCOCC4)c4oc5ncccc5c4n3)c2)cn1 (10 µM)
inactive: [1] 0 | [2] 0 | [10] 0 | [3] 0 | [4] 0 | [5] 0 | [6] 0 | [7] 0 | [8] 0 | [9] 0

CN1CCC(Nc2nc(Nc3ccc(Oc4ccccc4)cc3)c3c(=O)[nH]cc(Br)c3n2)CC1 (2.5 µM)
inactive: [1] 0 | [2] 0 | [10] 0 | [5] 0 | [6] 0 | [7] 0 | [8] 0 | [9] 0
active: [3] 1 | [4] 1

CC1=C(C#N)C(c2ccc3[nH]nc(C)c3c2)C(C#N)=C(C)N1 (10 µM)
inactive: [1] 0 | [2] 0 | [10] 0 | [3] 0 | [4] 0 | [5] 0 | [6] 0 | [7] 0 | [8] 0 | [9] 0

Cc1ncsc1-c1ccc(CNC(=O)[C@@H]2C[C@@H](O)CN2C(=O)[C@@H](NC(=O)COCCOc2ccc(-c3cc(Nc4ccc(OC(F)(F)F)cc4)ncn3)cc2)C(C)(C)C)cc1 (2.5 µM)
inactive: [1] 0 | [2] 0 | [10] 0 | [3] 0 | [4] 0 | [5] 0 | [6] 0 | [7] 0 | [8] 0 | [9] 0

CCNC(=O)Nc1ccc(-c2nc3c(c(N4CCOC[C@@H]4C)n2)CCN(C2COC2)C3)cc1 (2.5 µM)
inactive: [1] 0 | [2] 0 | [10] 0 | [3] 0 | [4] 0 | [5] 0 | [6] 0 | [7] 0 | [8] 0 | [9] 0

CCCS(=O)(=O)N[C@H]1C[C@@H](N(C)c2ncnc3[nH]ccc23)C1 [Abrocitinib] (10 µM)
inactive: [1] 0 | [10] 0 | [3] 0 | [4] 0 | [5] 0 | [6] 0 | [7] 0 | [8] 0 | [9] 0

CC1=CC(=O)C(C(C)C)=C/C1=N/OC(=O)c1ccccc1C [Poloxin] (2.5 µM)
inactive: [1] 0 | [2] 0 | [10] 0 | [3] 0 | [4] 0 | [5] 0 | [6] 0 | [7] 0 | [8] 0 | [9] 0

C[C@@H]1COC(Nc2ccc3ncnc(Nc4ccc(OCc5nccs5)c(Cl)c4)c3c2)=N1 [Varlitinib] (10 µM)
inactive: [1] 0 | [10] 0 | [3] 0 | [4] 0 | [5] 0 | [6] 0 | [7] 0 | [8] 0 | [9] 0

Cn1cc(-c2nc(N[C@@H]3CCCC[C@@H]3N)c(F)c3c2C(=O)NC3)cn1 [TAK-659 (hydrochloride)] (2 µM)
inactive: [1] 0 | [2] 0 | [10] 0 | [3] 0 | [4] 0 | [5] 0 | [6] 0 | [7] 0 | [8] 0 | [9] 0

C[C@H](Nc1cc2c(-c3ccc4c(c3)OCO4)noc2cn1)c1ccccc1 (10 µM)
inactive: [1] 0 | [2] 0 | [10] 0 | [3] 0 | [4] 0 | [5] 0 | [6] 0 | [7] 0 | [8] 0 | [9] 0

Cc1cc2c(F)c(Oc3ncnn4cc(OC[C@@H](C)OC(=O)[C@H](C)N)c(C)c34)ccc2[nH]1 [Brivanib (alaninate)] (10 µM)
inactive: [1] 0 | [2] 0 | [10] 0 | [3] 0 | [4] 0 | [5] 0 | [6] 0 | [7] 0 | [8] 0 | [9] 0

N#Cc1cnc(Nc2cc(NC[C@H]3CNCCO3)c(C(F)(F)F)cn2)cn1 (10 µM)
inactive: [1] 0 | [2] 0 | [10] 0 | [3] 0 | [4] 0 | [5] 0 | [6] 0 | [7] 0 | [8] 0 | [9] 0

COc1cc2c(cc1OC)[C@@H]1C(=O)c3ccc4c(c3O[C@@H]1CO2)C=CC(C)(C)O4 [Deguelin] (10 µM)
inactive: [1] 0 | [2] 0 | [10] 0 | [3] 0 | [4] 0 | [5] 0 | [6] 0 | [7] 0 | [8] 0 | [9] 0

O=C(NC[C@H](O)CO)c1ccncc1Nc1ccc(I)cc1F [Pimasertib] (10 µM)
inactive: [1] 0 | [2] 0 | [10] 0 | [3] 0 | [4] 0 | [5] 0 | [6] 0 | [8] 0 | [9] 0

CN1C(=O)[C@@H](NC(=O)c2cc(Cc3ccccc3)on2)COc2ccccc21 (10 µM)
inactive: [1] 0 | [2] 0 | [10] 0 | [3] 0 | [4] 0 | [5] 0 | [6] 0 | [7] 0 | [8] 0 | [9] 0

COc1ccc2cc1Oc1ccc(cc1)C[C@H]1c3cc(c(OC)cc3CCN1C)Oc1c(O)c(OC)cc3c1[C@H](C2)N(C)CC3 [Fangchinoline] (2.5 µM)
inactive: [1] 0 | [2] 0 | [10] 0 | [4] 0 | [5] 0 | [6] 0 | [7] 0 | [8] 0 | [9] 0

Nc1ccc(O)c(C(=O)O)c1 [5-Aminosalicylic Acid] (10 µM)
inactive: [1] 0 | [2] 0 | [10] 0 | [3] 0 | [4] 0 | [5] 0 | [6] 0 | [7] 0 | [8] 0 | [9] 0

O=C(Nc1ccccc1C(=O)NC1CCCCNC1=O)c1cc2ccccc2s1 (stereo not given) (10 µM)
inactive: [1] 0 | [2] 0 | [10] 0 | [3] 0 | [4] 0 | [5] 0 | [6] 0 | [7] 0 | [8] 0 | [9] 0

CO[C@@H]1[C@H](N(C)C(=O)c2ccccc2)C[C@H]2O[C@]1(C)n1c3ccccc3c3c4c(c5c6ccccc6n2c5c31)C(=O)NC4 [Midostaurin] (2.5 µM)
inactive: [1] 0 | [2] 0 | [10] 0 | [3] 0 | [4] 0 | [5] 0 | [6] 0 | [7] 0 | [8] 0 | [9] 0

CS(=O)(=O)c1cccc(CNc2nc(Nc3ccc4c(c3)CCC(=O)N4)ncc2C(F)(F)F)c1 (10 µM)
inactive: [1] 0 | [2] 0 | [10] 0 | [3] 0 | [4] 0 | [5] 0 | [6] 0 | [7] 0 | [8] 0 | [9] 0

C[C@@H]1CN(Cc2ccc(F)cc2)[C@@H](C)CN1C(=O)c1cc2c(C(=O)C(=O)N(C)C)cn(C)c2cc1Cl [Talmapimod] (10 µM)
inactive: [1] 0 | [2] 0 | [10] 0 | [3] 0 | [4] 0 | [5] 0 | [6] 0 | [7] 0 | [8] 0 | [9] 0

CC(C)(Oc1ccc(Cl)cc1)C(=O)Nc1ccc(OCc2ccc(C#N)cc2)cc1 [AMPK activator 4] (10 µM)
inactive: [1] 0 | [2] 0 | [10] 0 | [3] 0 | [4] 0 | [5] 0 | [6] 0 | [7] 0 | [8] 0 | [9] 0

Cc1ccc(Nc2cc(N[C@@H]3CCCC[C@@H]3N)nnc2C(N)=O)nc1C (2 µM)
inactive: [1] 0 | [2] 0 | [10] 0 | [3] 0 | [4] 0 | [5] 0 | [6] 0 | [7] 0 | [8] 0 | [9] 0
